Whole data set: some 33,000 sequences, median “E-score (-0.5 to 0.5)” near -0.0034, cut for the highest 2% near 0.25. Some of the results follow.
Target: T1, Yap3 (UniProt P38749)
T1 sequence: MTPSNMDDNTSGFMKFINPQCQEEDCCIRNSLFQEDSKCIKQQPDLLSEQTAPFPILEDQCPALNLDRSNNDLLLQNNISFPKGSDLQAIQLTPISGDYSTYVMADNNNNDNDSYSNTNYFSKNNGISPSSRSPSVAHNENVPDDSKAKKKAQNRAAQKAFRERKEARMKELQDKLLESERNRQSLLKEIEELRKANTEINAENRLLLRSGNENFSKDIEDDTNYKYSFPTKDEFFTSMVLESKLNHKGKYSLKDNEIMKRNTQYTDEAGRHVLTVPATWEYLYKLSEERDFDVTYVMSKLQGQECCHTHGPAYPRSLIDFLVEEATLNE
Experiment: PBM E-score (8-mer binding enrichment) (E-score (-0.5 to 0.5)); higher = stronger / more preferred TF binding
Conditions: protein concentration: 100 nM; construct: GST-full length
Procedure, shortened: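 Universal all-10-mer Agilent arrays, double-stranded by primer extension on fresh or once-stripped slides, were probed with about 100-200 nM GST-tagged yeast transcription factors made by PURExpress. Fluorescent anti-GST detected bound protein, and masliner normalised the scans. E-scores from the Universal PBM Analysis Suite were given to each ungapped eight-base word pooled with its reverse complement.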

Row | Sequence | PBM E-score
1 | GGTGACTA | -0.00115
2 | ACGGCTAG | -0.141
3 | CGGCCAGA | -0.0173
4 | ACTGTATG | 0.0595
5 | TGCGAGCA | 0.0642
6 | CAATATAA | 0.307
7 | CGTACGGC | -0.0609
8 | ATATAACG | 0.237
9 | GGGATCCA | -0.0652
10 | CACGTCAC | 0.0561
11 | CGTGTAGA | -0.00178
12 | AAGAGTCG | 0.141
13 | AGGTGACG | -0.109
14 | CCCGAGAA | 0.0338
15 | ATACCCAG | -0.0813
16 | ATTGAACA | 0.0824
17 | ATTGTCGC | 0.0675
18 | ATATGAGG | 0.0877
19 | CGCAGCGA | -0.0766
20 | CGCGCGTC | 0.169
21 | CGCAGGCC | -0.0949
22 | AAGCAGTG | -0.0579
23 | CGAAGCCC | -0.178
24 | GGCCACAA | -0.062
25 | GAAACGGA | 0.17

Row | Sequence | PBM E-score
26 | CGGCTAAG | -0.103
27 | AAAGCTAG | -0.0378
28 | CTCGAGGC | -0.0169
29 | GGGTCCCA | -0.199
30 | CCGGCACG | -0.163
31 | CCCCGCAG | -0.202
32 | CCTCTATA | -0.0402
33 | ACGAAAAA | 0.0676
34 | AATGTCGA | 0.183
35 | GGAAGAAC | 0.126
36 | CGTTCGAG | -0.0172
37 | ACCACGGC | -0.116
38 | CGACGACA | -0.011
39 | AGGAGTCA | 0.00727
40 | TCTGTTCA | 0.0596
41 | CTATAGGA | -0.0851
42 | ATCCTCCA | -0.03
43 | ACGACTAC | -0.0945
44 | GCTGTGAC | -0.0962
45 | CGATTGAG | 0.0236
46 | ACTATGAG | 0.0203
47 | GAATTATA | 0.237
48 | CTACTACA | 0.225
49 | ACACCCCA | -0.0392
50 | CAACAGTG | 0.0952

Row | Sequence | PBM E-score
51 | AAATGCGA | 0.101
52 | CGGGCTTC | -0.252
53 | ACAGGAAC | 0.12
54 | TTCATAAA | 0.0945
55 | GGCGACGA | -0.153
56 | CCGCCTCG | 0.0846
57 | ACCCACGG | -0.306
58 | AGGTTGTA | 0.163
59 | ACGTGGCA | -0.251
60 | ACACTACG | 0.014
61 | CAATTGTC | 0.225
62 | AGTGTCGA | -0.0703
63 | ATCTCGGA | 0.0763
64 | GACTTATA | 0.196
65 | GCATTGTA | -0.0355
66 | CCGTGCCA | -0.172
67 | CACGAAAC | 0.00245
68 | GGCAAAAC | -0.0314
69 | TCATCCGA | 0.117
70 | CCTCCAAC | 0.111
71 | CACAGAAG | -0.0867
72 | ACGATATA | 0.131
73 | ACATGCTC | -0.0428
74 | TAATGGGA | -0.0698
75 | ATATAAGC | 0.0573

Row | Sequence | PBM E-score
76 | CCGACGCG | -0.0691
77 | TAGCAGCA | 0.00637
78 | ATAAAAGG | -0.011
79 | GAAATTTA | 0.161
80 | AGTCCAAG | -0.145
81 | TCTATTAA | 0.188
82 | GGAAAGAC | -0.0223
83 | GCAATACC | 0.0796
84 | CCTAAGCG | -0.033
85 | GCTGGTGA | 0.0756
86 | GCGACCTA | -0.0637
87 | AGGACAAC | 0.0469
88 | ATTACAGG | 0.268
89 | ATGACAGA | 0.137
90 | GTTAGCCA | 0.0109
91 | AACTACGT | 0.0416
92 | ACATATAA | 0.29
93 | CTTGCGGA | -0.11
94 | ATGTGTGC | -0.0436
95 | CATAACGA | 0.127
96 | TAGTGCAA | 0.159
97 | CGCAATAA | 0.191
98 | GGACCGAA | 0.0935
99 | ACGGCCGT | -0.214
100 | AAGGGAAC | -0.158

Row | Sequence | PBM E-score
101 | ACGTAACA | 0.248
102 | ATCTAAGA | 0.0257
103 | CAAATCGC | -0.167
104 | GAGGGACC | -0.265
105 | CTTAAGTC | -0.0806
106 | ACGCTCGG | -0.0164
107 | AACGCCCT | -0.0326
108 | CGGAGGAG | -0.0814
109 | CAACAGCG | -0.135
110 | AGCGACAT | 0.0382
111 | CCGAACCG | -0.188
112 | ATTATACA | 0.195
113 | CAAGGAGA | -0.185
114 | AAAACGAT | 0.167
115 | AGTTGGTC | -0.09
116 | ATTCGAAA | 0.241
117 | GCCGGCAC | 0.00572
118 | GGATGCAC | -0.192
119 | GGGGCCAC | -0.331
120 | ACAGAAAG | 0.129
121 | CAGGTCCC | -0.281
122 | AGCACATG | 0.05
123 | GTATAGTA | 0.143
124 | ATATGCAT | 0.0271
125 | CTCAAAGA | -0.0998

Pulled one by one from the entries so far, 7 records:
Row | Sequence | PBM E-score
124 | ATATGCAT | 0.0271
120 | ACAGAAAG | 0.129
119 | GGGGCCAC | -0.331
104 | GAGGGACC | -0.265
121 | CAGGTCCC | -0.281
106 | ACGCTCGG | -0.0164
118 | GGATGCAC | -0.192

Remaining list, next part:

Row | Sequence | PBM E-score
126 | AGAGTGTC | 0.195
127 | TATCAACA | 0.123
128 | CGCGCCCA | -0.0446
129 | TAACTTAA | 0.201
130 | GCAGTCGA | -0.0533
131 | ACGGCTAA | 0.168
132 | ACCTTTAC | 0.0118
133 | GGCGGTGA | 0.132
134 | CACGAGTG | -0.108
135 | GAAATAAC | 0.151
136 | GAGACAAA | 0.00669
137 | CTTAATAA | 0.275
138 | AACAGTGC | 0.00374
139 | ACCCTCCG | -0.282
140 | CGTATTGA | 0.166
141 | AAGAATGC | 0.0376
142 | ACCGGACG | 0.075
143 | CTGGTAGC | -0.158
144 | CATAGTCG | -0.00295
145 | CGTCAAAA | 0.163
146 | ATATGGAA | 0.0953
147 | AGCGCTTG | -0.011
148 | GTGGTAAC | 0.058
